# Results deposited as PubChem BioAssay AID1224828 (NIAID, 2016).
# Test: 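Knock-downs that increase or decrease LPS-induced p65 nuclear translocation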 (primary screen)
# Cells: mouse RAW264.7 G9 macrophage reporter cells (GFP-p65, Tnf promoter-mCherry)
# Reagents: siRNA pool against mouse genes, 100 nM
# Time to read-out: 2 days siRNA transfection, then 40 min LPS before fixation
# Conditions: LPS (Salmonella minnesota R595) at 10 ng/ml
# Measured: 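Imaged p65 nuclear translocation ratio, normalised to the plate median, converted to robust z-scores and averaged across two replicates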
# Direction: p65 translocation robust z-score: higher = more nuclear NF-kappaB p65 after LPS than the plate median; nuclear/cytoplasmic p65 ratio: higher = more nuclear NF-kappaB p65
# Active means: 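Called active when z exceeds 3.3 or falls under -1.56 (median of Tlr4 controls), giving activity score of at least 50; no calls for control wells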
# Meaning of the calls: active = hit (p65 shift raised or lowered); inactive = no clear change
# In all, the deposit lists about 17,000 reagents; shown is an unselected part. Over the whole deposit, 762 (4.5%) were called active. 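Active calls include both raised and lowered p65 entry, mostly lowered; wells with fewer than 50 cells lack a z-score.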 Raw values vary from plate to plate and are shown uncorrected. Entries without a mark were called inactive. Some reagents were tested in more than one well and are listed for each.
gene,PubChem SID,p65 translocation robust z-score,"nuclear/cytoplasmic p65 ratio, rep 1","nuclear/cytoplasmic p65 ratio, rep 2",low cell count flag
Xrn2,SID315470337,-0.53,1.21,1.19,enough cells to score
Kirrel2,SID315479720,0.05,1.55,1.44,enough cells to score
Ndrg2,SID315470701,0.83,1.51,1.48,enough cells to score
Suv39h2,SID315472123,-1.48,1.39,1.29,enough cells to score
Or14j7,SID315481834,0.02,1.62,1.42,enough cells to score
Lamp1,SID315467726,0.09,1.46,1.54,enough cells to score
Als2cl,SID315479283,0.53,1.42,1.93,enough cells to score
Pop1,SID315473191,0.66,1.18,1.29,enough cells to score
Tstd2,SID315480962,,1.92,1.88,fewer than 50 cells per well; well left out of scoring
Plek,SID315471390,-0.21,1.5,1.35,enough cells to score
Il24,SID315475912,-0.73,1.33,1.33,enough cells to score
Krtap5-2,SID315474264,,1.19,1.4,fewer than 50 cells per well; well left out of scoring
Acaa1a,SID315476995,-0.32,1.52,1.61,enough cells to score
Ca9,SID315478761,-0.79,1.42,1.57,enough cells to score
Defa3,SID315466307,-0.27,1.27,1.33,enough cells to score
Nlrp5,SID315470263,-1.72 (active),1.5,1.39,enough cells to score
Nrarp,SID315472849,0.37,1.81,1.55,enough cells to score
Mrc2,SID315467980,,1.63,1.34,fewer than 50 cells per well; well left out of scoring
Tmeff1,SID315478767,,1.41,1.4,fewer than 50 cells per well; well left out of scoring
Vmn1r220,SID315477346,0.54,1.48,1.27,enough cells to score

Copied from above, 3 entries:
gene,PubChem SID,p65 translocation robust z-score,"nuclear/cytoplasmic p65 ratio, rep 1","nuclear/cytoplasmic p65 ratio, rep 2",low cell count flag
Kirrel2,SID315479720,0.05,1.55,1.44,enough cells to score
Ndrg2,SID315470701,0.83,1.51,1.48,enough cells to score
Suv39h2,SID315472123,-1.48,1.39,1.29,enough cells to score

Next entries follow.
gene,PubChem SID,p65 translocation robust z-score,"nuclear/cytoplasmic p65 ratio, rep 1","nuclear/cytoplasmic p65 ratio, rep 2",low cell count flag
Tor4a,SID315478570,-1.33,1.26,1.34,enough cells to score
Cdc14a,SID315478741,0.19,1.46,1.43,enough cells to score
Acad10,SID315474407,0.17,1.74,1.38,enough cells to score
Acad10,SID315474407,0.16,1.42,1.2,enough cells to score
Igf1r,SID315467404,-0.34,2.15,1.33,enough cells to score
Irs4,SID315467496,-0.49,1.48,1.25,enough cells to score
Dyrk1a,SID315466411,-0.74,1.55,1.31,enough cells to score
Or7d9,SID315480466,-0.45,1.57,1.33,enough cells to score
Rapgef6,SID315477426,-0.04,1.43,1.51,enough cells to score
Sema6d,SID315477899,-0.5,1.57,1.2,enough cells to score
Slc7a12,SID315477159,1.28,1.51,1.37,enough cells to score
Sez6,SID315469191,,1.09,1.18,fewer than 50 cells per well; well left out of scoring
Ankrd23,SID315475564,0.33,1.63,1.76,enough cells to score
Phkb,SID315476312,0.92,1.61,1.54,enough cells to score
Klf8,SID315479835,0.13,1.67,1.59,enough cells to score
Mmrn2,SID315476492,-0.43,1.76,1.49,enough cells to score
Nacc2,SID315473351,1.37,0.975,1.72,enough cells to score
Acsm1,SID315477082,-0.3,1.43,1.44,enough cells to score
Plppr2,SID315479221,0.22,1.62,1.87,enough cells to score
Dusp23,SID315473531,,1.39,1.19,fewer than 50 cells per well; well left out of scoring
Cyp2d26,SID315475276,-1.23,1.38,1.59,enough cells to score
Micos13,SID315478386,3.03,1.82,1.84,enough cells to score
Mogat2,SID315479089,1.84,1.6,1.66,enough cells to score
Ttpa,SID315470801,-0.03,1.48,1.52,enough cells to score
Nrcam,SID315481102,0.83,1.77,1.71,enough cells to score
4931431C16Rik,SID315474954,,1.3,1.32,fewer than 50 cells per well; well left out of scoring
Lrrc19,SID315476203,0.79,1.52,1.67,enough cells to score
Bcl2,SID315465610,-1.07,1.42,1.49,enough cells to score
Rnf144b,SID315478181,1.96,1.82,1.71,enough cells to score
Gm4884,SID315479062,,1.36,1.54,fewer than 50 cells per well; well left out of scoring
Commd1,SID315468038,0.37,1.5,1.98,enough cells to score
Cxxc1,SID315474938,,1.82,1.66,fewer than 50 cells per well; well left out of scoring
Tfap2e,SID315481652,-0.31,1.39,1.16,enough cells to score
5330426L24Rik,SID315475557,0.47,1.36,1.59,enough cells to score
Cav3,SID315465786,-0.13,1.51,1.3,enough cells to score
Nit1,SID315470518,-0.87,1.6,1.39,enough cells to score
Tmed4,SID315476382,1.17,1.61,1.7,enough cells to score
Or7e170,SID315480223,,1.38,1.4,fewer than 50 cells per well; well left out of scoring
Fcrl2,SID315475743,-0.76,1.6,1.53,enough cells to score
